Measured values as given in PMC7157520.
Results are given in words; binding and its absence hold for the method and conditions named. For some of these results: In cells and extracts the contact can be indirect. Some binding calls cover weakened binding; strength is not graded here. Sequences can lack the tags named with a protein.

The chains behind the UniProt entries cited, without tags or fusion partners.
UniProt Q6VN20: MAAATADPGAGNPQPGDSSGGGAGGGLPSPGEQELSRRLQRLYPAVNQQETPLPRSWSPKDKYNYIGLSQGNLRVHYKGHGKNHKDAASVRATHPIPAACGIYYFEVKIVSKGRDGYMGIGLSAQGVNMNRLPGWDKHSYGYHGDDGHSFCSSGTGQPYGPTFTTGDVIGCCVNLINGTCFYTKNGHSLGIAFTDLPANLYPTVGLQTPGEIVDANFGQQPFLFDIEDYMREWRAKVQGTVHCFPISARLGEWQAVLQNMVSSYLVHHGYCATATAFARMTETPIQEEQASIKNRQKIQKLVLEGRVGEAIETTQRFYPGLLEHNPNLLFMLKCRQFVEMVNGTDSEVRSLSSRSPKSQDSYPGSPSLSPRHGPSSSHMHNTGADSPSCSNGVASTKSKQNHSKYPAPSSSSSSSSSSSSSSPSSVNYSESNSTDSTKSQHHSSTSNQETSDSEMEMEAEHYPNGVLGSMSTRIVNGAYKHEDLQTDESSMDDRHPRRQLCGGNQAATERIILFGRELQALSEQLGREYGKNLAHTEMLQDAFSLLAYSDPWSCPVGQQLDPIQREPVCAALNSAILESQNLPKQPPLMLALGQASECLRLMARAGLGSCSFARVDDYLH

Columns and labels:
BD-RanBP10 = BD-RanBP10 (UniProt Q6VN20); experiment: two-hybrid
BD-RanGAP1 = target: T1, BD-RanGAP1 (UniProt P46060); experiment: two-hybrid
T1 sequence: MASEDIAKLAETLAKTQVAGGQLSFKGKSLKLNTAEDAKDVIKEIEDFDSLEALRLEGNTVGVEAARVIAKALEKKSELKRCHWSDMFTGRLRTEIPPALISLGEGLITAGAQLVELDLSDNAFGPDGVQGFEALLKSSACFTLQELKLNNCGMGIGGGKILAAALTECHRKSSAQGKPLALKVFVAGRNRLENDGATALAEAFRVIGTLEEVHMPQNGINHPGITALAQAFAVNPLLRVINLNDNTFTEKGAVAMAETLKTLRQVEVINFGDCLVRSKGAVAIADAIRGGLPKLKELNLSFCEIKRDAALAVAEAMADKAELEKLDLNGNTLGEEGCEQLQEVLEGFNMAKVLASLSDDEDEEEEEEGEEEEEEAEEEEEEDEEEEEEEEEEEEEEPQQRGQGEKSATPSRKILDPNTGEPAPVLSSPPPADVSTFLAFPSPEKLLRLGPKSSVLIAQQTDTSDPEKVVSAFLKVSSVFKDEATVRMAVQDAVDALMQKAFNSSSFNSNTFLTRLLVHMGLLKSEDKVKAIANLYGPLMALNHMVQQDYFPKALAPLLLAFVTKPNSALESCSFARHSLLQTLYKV

Strep-RanBP10 = Strep-RanBP10 (UniProt Q6VN20); experiment: co-IP
[1] = target: T2, FLAG-LegG1 (L. pneumophila strain Philadelphia-1) (UniProt Q5ZU32); experiment: co-IP
T2 sequence: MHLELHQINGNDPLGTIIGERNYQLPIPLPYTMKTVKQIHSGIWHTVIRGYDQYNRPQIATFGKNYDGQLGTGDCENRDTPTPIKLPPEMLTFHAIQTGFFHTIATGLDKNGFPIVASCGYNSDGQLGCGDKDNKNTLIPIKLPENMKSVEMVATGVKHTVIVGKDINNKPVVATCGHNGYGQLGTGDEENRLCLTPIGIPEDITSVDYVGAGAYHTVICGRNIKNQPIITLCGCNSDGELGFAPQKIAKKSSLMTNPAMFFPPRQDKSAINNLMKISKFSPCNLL

B1: AD-LegG1 (protein, UniProt Q5ZU32 1-286)
chain: MHLELHQINGNDPLGTIIGERNYQLPIPLPYTMKTVKQIHSGIWHTVIRGYDQYNRPQIATFGKNYDGQLGTGDCENRDTPTPIKLPPEMLTFHAIQTGFFHTIATGLDKNGFPIVASCGYNSDGQLGCGDKDNKNTLIPIKLPENMKSVEMVATGVKHTVIVGKDINNKPVVATCGHNGYGQLGTGDEENRLCLTPIGIPEDITSVDYVGAGAYHTVICGRNIKNQPIITLCGCNSDGELGFAPQKIAKKSSLMTNPAMFFPPRQDKSAINNLMKISKFSPCNLL
- binding (BD-RanBP10): binds
- binding (BD-RanGAP1): no binding

B2: GFP-LegG1 (protein, UniProt Q5ZU32 1-286)
chain: MHLELHQINGNDPLGTIIGERNYQLPIPLPYTMKTVKQIHSGIWHTVIRGYDQYNRPQIATFGKNYDGQLGTGDCENRDTPTPIKLPPEMLTFHAIQTGFFHTIATGLDKNGFPIVASCGYNSDGQLGCGDKDNKNTLIPIKLPENMKSVEMVATGVKHTVIVGKDINNKPVVATCGHNGYGQLGTGDEENRLCLTPIGIPEDITSVDYVGAGAYHTVICGRNIKNQPIITLCGCNSDGELGFAPQKIAKKSSLMTNPAMFFPPRQDKSAINNLMKISKFSPCNLL
- binding (Strep-RanBP10): binds

B3: RNA1-Strep (protein, UniProt P11745 1-407)
chain: MATLHFVPQHEEEQVYSISGKALKLTTSDDIKPYLEELAALKTCTKLDLSGNTIGTEASEALAKCIAENTQVRESLVEVNFADLYTSRLVDEVVDSLKFLLPVLLKCPHLEIVNLSDNAFGLRTIELLEDYIAHAVNIKHLILSNNGMGPFAGERIGKALFHLAQNKKAASKPFLETFICGRNRLENGSAVYLALGLKSHSEGLKVVKLYQNGIRPKGVATLIHYGLQYLKNLEILDLQDNTFTKHASLILAKALPTWKDSLFELNLNDCLLKTAGSDEVFKVFTEVKFPNLHVLKFEYNEMAQETIEVSFLPAMEKGNLPELEKLEINGNRLDEDSDALDLLQSKFDDLEVDDFEEVDSEDEEGEDEEDEDEDEKLEEIETERLEKELLEVQVDDLAERLAETEIK
- binding [1]: no binding
